# Experimental data from PubChem BioAssay AID2517 (National Center for Advancing Translational Sciences (NCATS), 2010).
# Sequences of proteins named here, by UniProt entry; tags and fusion partners are left off.
# UniProt P27695, whole entry, looked up: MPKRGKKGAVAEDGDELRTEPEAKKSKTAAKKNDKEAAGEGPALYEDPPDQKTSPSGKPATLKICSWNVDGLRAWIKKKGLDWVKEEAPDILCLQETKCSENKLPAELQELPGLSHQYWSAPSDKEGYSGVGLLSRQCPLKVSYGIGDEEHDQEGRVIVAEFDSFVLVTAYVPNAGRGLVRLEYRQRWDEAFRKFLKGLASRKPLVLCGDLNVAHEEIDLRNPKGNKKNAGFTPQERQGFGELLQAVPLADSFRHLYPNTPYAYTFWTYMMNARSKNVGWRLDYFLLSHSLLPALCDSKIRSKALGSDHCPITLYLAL
# Screen size: about 350,000 compounds; about 1,200 (0.34%) were called active. Inconclusive means that the source gave no clear call. Such entries were picked first, then a sample of the others. The call rests on the fitted dose curve; in most records, active means well fitted inhibition curve with a large enough effect; inconclusive means small, poorly fitted or top-dose-only effect; inactive means no such curve, though single readings can be large or run the other way. Potencies of inconclusive entries are doubtful fits and often do not repeat.
# Biological target: DNA repair nuclease/redox regulator APEX1 (Homo sapiens) (UniProt P27695)
# Test: qHTS Assay for Inhibitors of the Human Apurinic/apyrimidinic Endonuclease 1 (APE1); further: nearly all actives have a fitted effect of over 55% in size
# Conditions: recombinant APE1, TAMRA/BHQ-2 abasic DNA cleavage fluorescence; series mostly up to 65.8 µM
# In short: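 Readout is kinetic fluorescence (ex 525, em 598 nm) from cleavage of 50 nM TAMRA/BHQ-2 THF abasic duplex by 0.75 nM APE1, compound added 15 min beforehand at RT.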
# Potency means the concentration at half of the fitted maximal effect.
row,Structure (SMILES),Potency
1,O=C(O)c1ccc(Nc2ccc(Cl)c(Cl)c2)c([N+](=O)[O-])c1,inactive
2,O=C(N/C=C/c1ccco1)Nc1cccc(Cl)c1,"inconclusive: 25.1 µM [inhibitor, single point]"
3,CCN(c1ccccc1)S(=O)(=O)c1cc(NC(=O)CN2CCN(C)CC2)ccc1Cl,"inconclusive: 29.9 µM [inhibitor, single point]"
4,CCNc1ccc(Br)cc(C(=O)/C=C/c2c(Cl)cccc2Cl)c1=O,"inconclusive: 3.98 µM [inhibitor, single point]"
5,O=C1c2ccccc2C(=O)N1/N=C/c1ccc(O)c(O)c1,"inconclusive: 14.1 µM [inhibitor, partial curve]"
6,CCS(=O)(=O)Nc1ccc(C2=NN(C(=O)c3ccco3)C(c3ccc(C)cc3)C2)cc1 (configuration not stated),"inconclusive: 50.1 µM [inhibitor, single point]"
7,Cc1nnn(-c2nonc2N)c1C(=O)N/N=C/c1cccc2ccccc12,"inconclusive: 2 µM [inhibitor, full curve, poor fit]"
8,O=C(O)c1ccc(N/N=C/C2=C(N3CCOCC3)C(=C\c3ccccc3)/CC2)cc1,"inconclusive: 39.8 µM [inhibitor, single point]"
9,COc1ccc(N(CC(=O)N/N=C/c2ccc(-c3ccc([N+](=O)[O-])cc3)o2)S(=O)(=O)c2ccc(C)cc2)cc1Cl,"inconclusive: 25.1 µM [inhibitor, single point]"
10,Cc1ccccc1CS(=O)(=O)c1nnc([C@H](Cc2ccccc2)NC(=O)OC(C)(C)C)o1,"inconclusive: 12.6 µM [inhibitor, partial curve, poor fit]"
11,Cc1ccc(CSCCNS(=O)(=O)c2ccc(C)cc2)cc1,"inconclusive: 39.8 µM [inhibitor, partial curve, poor fit]"
12,CCOCCCNC(=O)C(NC(=O)c1ccccc1O)c1ccc(Cl)cc1 (configuration not stated),"inconclusive: 11.2 µM [inhibitor, partial curve, poor fit]"
13,Cc1ccc(F)cc1-c1ccc(C(=O)N=C(N)N)o1,"inconclusive: 50.1 µM [inhibitor, partial curve, poor fit]"
14,COCCCNS(=O)(=O)c1ccc(S(=O)(=O)N2CCCC2)cc1,"inconclusive: 3.98 µM [inhibitor, partial curve, poor fit]"
15,O=C(CCCc1ccccc1)c1ccccc1,inactive
16,CC1(C)COC(c2cccn2Cc2ccc(F)cc2Cl)=N1,"inconclusive: 44.7 µM [inhibitor, single point]"
17,Cc1cccc([N+](=O)[O-])c1C(=O)O,"inconclusive: 35.5 µM [inhibitor, partial curve, poor fit]"
18,O=C(O)c1ccc(NCc2ccncc2)cc1,"inconclusive: 3.55 µM [inhibitor, single point]"
19,CCCCn1c(C)cc2c(c1=O)C1O[C@](c3ccc(OC)cc3)(Cc3cc(OC)c(OC)cc31)O2,active: 4.33 µM
20,CC(C)C(NS(=O)(=O)c1cccc2nsnc12)C(=O)NCc1ccc2c(c1)OCO2 (configuration not stated),"inconclusive: 8.91 µM [inhibitor, single point]"
21,O=C(NCC1CCCO1)c1cc(-c2ccco2)nc2ccccc12 (configuration not stated),"inconclusive: 31.6 µM [inhibitor, single point]"
22,COc1nc(NCc2cccnc2)nc(OC)n1,"inconclusive: 0.0035 µM [inhibitor, full curve, poor fit]"
23,O=C1CCCC(O)=C1N=Nc1c(Cl)cc(Cl)cc1Cl,"inconclusive: 39.8 µM [inhibitor, single point]"
24,OCc1ccccc1O[C@H]1OC(CO)C(O)C(O)C1O (some centres not stated),"inconclusive: 100 µM [inhibitor, partial curve, poor fit]"
25,Cc1nn(-c2ccccc2)c(Cl)c1/C=N\NC(=O)c1cncc(Br)c1,"inconclusive: 35.5 µM [inhibitor, single point]"
26,CC1(C)CC(=O)c2c(oc3cc(O)c(O)cc23)C1,"inconclusive: 14.1 µM [inhibitor, partial curve]"
27,COc1ccc(C)cc1-n1c(-c2ccncc2)n[nH]c1=S,"inconclusive: 3.98 µM [inhibitor, full curve, poor fit]"

# 2 records drawn at random from those above:
row,Structure (SMILES),Potency
7,Cc1nnn(-c2nonc2N)c1C(=O)N/N=C/c1cccc2ccccc12,"inconclusive: 2 µM [inhibitor, full curve, poor fit]"
12,CCOCCCNC(=O)C(NC(=O)c1ccccc1O)c1ccc(Cl)cc1 (configuration not stated),"inconclusive: 11.2 µM [inhibitor, partial curve, poor fit]"
